This passage reports binding results from paper PMC3899953.

Results are given in words; binding and its absence hold for the method and conditions named. In cells and extracts the contact can be indirect. Some results given as binding are weak or reduced against the parent protein; the word gives no strength. Tags and fused reporters may be left off the sequences shown.

Assay [1] addresses T1, myc-tagged Rtg2 (RTG2-myc3, strain RBY915) (S. cerevisiae) (UniProt P32608).
T1 sequence: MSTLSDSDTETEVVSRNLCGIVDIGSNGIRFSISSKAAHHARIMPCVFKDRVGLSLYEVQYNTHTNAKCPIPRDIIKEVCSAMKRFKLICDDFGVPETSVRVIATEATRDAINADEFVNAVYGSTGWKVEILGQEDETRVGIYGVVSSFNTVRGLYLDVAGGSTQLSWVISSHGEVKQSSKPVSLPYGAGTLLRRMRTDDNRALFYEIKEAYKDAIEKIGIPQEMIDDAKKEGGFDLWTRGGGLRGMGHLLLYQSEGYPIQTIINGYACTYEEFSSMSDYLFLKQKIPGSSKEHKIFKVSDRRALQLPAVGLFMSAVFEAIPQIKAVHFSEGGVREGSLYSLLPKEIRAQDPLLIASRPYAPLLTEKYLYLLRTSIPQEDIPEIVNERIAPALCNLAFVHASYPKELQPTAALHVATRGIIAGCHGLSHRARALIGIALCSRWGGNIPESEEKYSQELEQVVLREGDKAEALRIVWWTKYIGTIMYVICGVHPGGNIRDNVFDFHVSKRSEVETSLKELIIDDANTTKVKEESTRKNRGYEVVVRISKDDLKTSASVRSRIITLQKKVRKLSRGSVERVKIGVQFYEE
Description: co-IP; Rtg2-myc precipitated with anti-myc antibody 9E10 and protein G-Sepharose from yeast lysates (~1.6 mg protein) in IP buffer (20 mM Hepes-KOH pH 7.6, 150 mM KCl, 10 mM MgCl, 0.5% Triton X-100), 4 °C; Mks1-HA detected by anti-HA blot; in Figure 1 lysates were first incubated 1.5 h with 0, 1, 2 or 5 mM ATP, 5 mM ADP or 5 mM AMP-PNP.

Assay [2] deals with T2, myc-tagged Rtg2 (pRS415-RTG2-myc, pZL1951) (S. cerevisiae) (UniProt P32608).
T2 sequence: T1 sequence
The assay is described as above.

B1: HA-tagged Mks1 (pRS416-MKS1p-MKS1-HA, pZL1480) (protein, UniProt P34072 1-584)
chain: MSREAFDVPNIGTNKFLKVTPNLFTPERLNLFDDVELYLTLIKASKCVEQGERLHNISWRILNKAVLKEHNINRSKKRDGVKNIYYVLNPNNKQPIKPKQAAVKQPPLQKANLPPTTAKQNVLTRPMTSPAIAQGAHDRSLDNPNSTNNDVKNDVAPNRQFSKSTTSGLFSNFADKYQKMKNVNHVANKEEPQTIITGFDTSTVITKKPLQSRRSRSPFQHIGDMNMNCIDNETSKSTSPTLENMGSRKSSFPQKESLFGRPRSYKNDQNGQLSLSKTSSRKGKNKIFFSSEDEDSDWDSVSNDSEFYADEDDEEYDDYNEEEADQYYRRQWDKLLFAKNQQNLDSTKSSVSSANTINSNTSHDPVRKSLLSGLFLSEANSNSNNHNTAHSEYASKHVSPTPQSSHSNIGPQPQQNPPSANGIKQQKPSLKTSNVTALASLSPPQPSNNERLSMDIQKDFKTDNESNHLYESNAPLTAQTILPTALSTHMFLPNNIHQQRMAIATGSNTRHRFSRRQSMDIPSKNRNTGFLKTRMEISEEEKMVRTISRLDNTSIANSNGNGNDDTSNQRTEALGRKTSNGGRI
Consider B1, for which the binding entry in assay [1] and in assay [2] was “binds” each time.
